Results: patent publication US20250064758A1 (priority 2023, published 2025)
Where two headings read alike, the source gives them in different places.

Key:
[1] = system: HCoV-229E; conditions: read-out: IC50 calculated by viral gene copies
[2] = system: HCoV-229E; assay: microbe, parasite or virus in culture; conditions: Human coronavirus 229E, Huh-7, read-out: IC50 calculated by viral gene copies
[3] = system: MERS-COV; assay: microbe, parasite or virus in culture; conditions: Middle East respiratory syndrome-related coronavirus, VeroE6/TMPRSS2, read-out: IC50 calculated by viral gene copies
[4] = system: SARS-COV; assay: microbe, parasite or virus in culture; conditions: Severe acute respiratory syndrome coronavirus, VeroE6/TMPRSS2, read-out: IC50 calculated by viral gene copies

Question: How did the IC50 [1] turn out when `CC(C)NCC(O)COc1cccc2ccccc12` (stereo not shown) [Propranolol, 1-(isopropylamino)-3-(1-naphthyloxy)-2-propanol] was run?
Answer: Its IC50 is 9.74 µM.

Question: And the IC50 [2]?
Answer: Its IC50 is 7.15 µM.

Question: What about the IC50 [3] of the same compound?
Answer: The IC50 was 17.7 µM.

Question: What about the IC50 [4] of the same compound?
Answer: The IC50 was 19.6 µM.
